Data from PubChem BioAssay.
The shares of active, inactive and inconclusive entries below differ from those in the screen. A potency beside an inconclusive call is a rough fit, not a confirmed value. Active and inactive are the calls of the source. Unless noted, no cut-off is given here; in the data, nearly all actives have AC50 up to about 26 µM.

Key:
[1] = growth inhibition of DIPG glioma cells, dose response, cell-based, SU-DIPG-XVII, MIPE5.0, CellTiter-Glo, qHTS (AID 1347060); settings: SU-DIPG-XVII viability, CellTiter-Glo ATP luminescence;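 for AC50: cells exposed to compound for 48 hours before viability readout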
[2] = growth inhibition of DIPG glioma cells, dose response, cell-based, JHH-DIPG-1, MIPE4.0, CellTiter-Glo, qHTS (AID 1347062; cut-off not given, nearly all actives have AC50 up to about 27 µM;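 for AC50: cells exposed to compound for two days before readout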); settings: JHH-DIPG-1 viability, CellTiter-Glo ATP luminescence
[3] = growth inhibition of DIPG glioma cells, dose response, cell-based, SU-DIPG-IV, MIPE4.0, CellTiter-Glo, qHTS (AID 1347063; cut-off not given, nearly all actives have AC50 up to about 30 µM;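 note: compound exposure lasted 48 hours before the viability readout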); settings: SU-DIPG-IV viability, CellTiter-Glo ATP luminescence
[4] = JHH-DIPG-1 glioma cell viability, MIPE5.0 library, CellTiter-Glo luminescence, qHTS (AID 1347067); settings: JHH-DIPG-1 glioma viability, CellTiter-Glo ATP luminescence;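 note: cells exposed to compound for 48 hours before readout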
[5] = SU-DIPG-XXV glioma cell viability, MIPE5.0 library, qHTS (AID 1347068; cut-off not given, nearly all actives have IC50 up to about 30 µM;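 for IC50: cells exposed to compound for 48 hours before viability readout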)
[6] = growth inhibition of DIPG glioma cells, dose response, cell-based, SU-DIPG-XIII, MIPE5.0, CellTiter-Glo, qHTS (AID 1347064; cut-off not given, nearly all actives have AC50 up to about 23 µM;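 for AC50: cells exposed to compound for 48 hours before the viability read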); settings: SU-DIPG-XIII viability, CellTiter-Glo ATP luminescence
[7] = SU-DIPG-VI glioma cell viability, MIPE4.0 library, CellTiter-Glo luminescence, qHTS (AID 1347066; cut-off not given, nearly all actives have AC50 up to about 30 µM;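 note: cells exposed to compound for 48 hours before readout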); settings: CellTiter-Glo ATP luminescence
[8] = viability loss in pontine glioma line – cell-based, SU-DIPG-XXV, MIPE5.0, CellTiter-Glo, qHTS, dose response (AID 1347065); settings: CellTiter-Glo ATP luminescence;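 note: cells exposed to compound for 48 hours before ATP readout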

COc1ccc2cc(-c3nc(-c4ccc(S(C)=O)cc4)[nH]c3-c3ccncc3)ccc2c1 (centres undefined)
AC50 [1]: inconclusive: 29.5 µM [cytotoxic]
AC50 [2]: inconclusive: 29.6 µM [cytotoxic]
AC50 [3]: inconclusive: 33.2 µM [cytotoxic]
AC50 [4]: inconclusive: 37.2 µM [cytotoxic]
IC50 [5]: inconclusive: 20.9 µM [cytotoxic]

C[C@@H]1CCN(C(=O)CC#N)C[C@@H]1N(C)c1ncnc2[nH]ccc12
outcome [1]: inactive
outcome [2]: inactive
outcome [3]: inactive
outcome [6]: inactive
outcome [7]: inactive
IC50 [5]: inconclusive: 11.8 µM

c1ccc2c(Oc3nc(Nc4ccc(N5CCOCC5)cc4)c4ncn(C5CCCCC5)c4n3)cccc2c1
AC50 [1]: inconclusive: 16.6 µM [cytotoxic]
AC50 [3]: inconclusive: 10.5 µM [cytotoxic]
AC50 [6]: inconclusive: 10.5 µM [cytotoxic]
AC50 [8]: inconclusive: 5.9 µM [cytotoxic]

O=C(O)C1=CC(O)C(O)[C@H](O)C1 (some centres undefined)
outcome [1]: inactive
AC50 [3]: inconclusive: 0.00105 µM
outcome [6]: inactive
outcome [8]: inactive
AC50 [7]: inconclusive: 0.00526 µM [cytotoxic]

C[C@H]1O[C@H](O[C@H]2[C@H](O)[C@@H](O)[C@@H](O[C@H]3[C@H](O)[C@@H](O)C(O)O[C@@H]3CO)O[C@@H]2CO)[C@H](O)[C@@H](O)[C@@H]1N[C@H]1C=C(CO)[C@@H](O)[C@H](O)[C@H]1O (some centres undefined)
outcome [1]: inactive
AC50 [3]: inconclusive: 37.2 µM [cytotoxic]
AC50 [6]: inconclusive: 0.00525 µM
outcome [8]: inactive

CC(C)OC(=O)C1=CN(C(=O)c2ccc(F)c(F)c2)CC(C)(C)c2c1[nH]c1ccccc21
AC50 [1]: inconclusive: 0.00148 µM
AC50 [2]: inconclusive: 0.264 µM [cytotoxic]
outcome [6]: inactive
outcome [4]: inactive
outcome [5]: inactive
